Reference: patent US20240238223A1 (Shenyang Pharmaceutical University, priority 2023, published 2024)
Where two headings read alike, the source gives them in different places. Some of these results come from one statement about several compounds together.

Tested on: paclitaxel-resistant A549/T cells

Q: How did the “Growth of cells inhibited, drug alone” value (A549/T, 96 h, 5-20 μM alone) turn out when `Cc1c(-c2ccc(N3CCc4cccc(C(=O)Nc5nc6ccccc6s5)c4C3)nc2C(=O)O)cnn1CC12CC3CC(CC(C3)C1)C2` [A1331852] was run?
A: Its value is “less than 50%”.

Q: Which “Growth of cells inhibited, drug alone” value does the source give for `CC1(C)CCC(CN2CCN(c3ccc(C(=O)NS(=O)(=O)c4ccc(NCC5CCOCC5)c([N+](=O)[O-])c4)c(Oc4cnc5[nH]ccc5c4)c3)CC2)=C(c2ccc(Cl)cc2)C1` [Venetoclax] here?
A: The value was “less than 50%”.

Q: For `CC1(C)CCC(c2ccc(Cl)cc2)=C(CN2CCN(c3ccc(C(=O)NS(=O)(=O)c4ccc(N[C@H](CCN5CCOCC5)CSc5ccccc5)c(S(=O)(=O)C(F)(F)F)c4)cc3)CC2)C1` [Navitoclax], which “Growth of cells inhibited, drug alone” value is on record?
A: Its value is “less than 50%”.

Q: With `CN(C)CC#Cc1ccc(OCCCc2sc(N3CCc4cccc(C(=O)Nc5nc6ccccc6s5)c4C3)nc2C(=O)O)c(F)c1` [A1155463] as the molecule, how does the “Growth of cells inhibited, drug alone” value (A549/T, 96 h, 5-20 μM alone) read?
A: Its value is “less than 50%”.

Q: Which “Growth of cells inhibited, drug alone” value (A549/T, 96 h, 20-80 nM alone) does the source give for `CNc1ccc2c(cc1=O)C(NC(C)=O)CCc1cc(OC)c(OC)c(OC)c1-2` (centres unmarked) [Methylaminocolchicine] here?
A: The value was “less than 50%”.
